Article PMC5942357 (European Journal of Clinical Pharmacology, 2018)
Like-named read-outs stand apart in the source and are kept apart here.

Legend:
[1] = over the range from 30 to 3000 mcg
[2] = in vivo
[3] = 4-week inhalation, all doses tested
αvβ6 integrin = details: cited from earlier work
[4] = in vivo; remark: listed apart in the source

Cc1cc(C)n(-c2cccc([C@H](CC(=O)O)CN3CC[C@@H](CCc4ccc5c(n4)NCCC5)C3)c2)n1 [GSK3008348]
Increase in dose normalised geometric mean Cmax [1]: less than 3 fold | Treatment-related AEs: Any AE (1 mcg, N = 6): 2 (33) Number (%) of participants | Treatment-related AEs: Cough (1 mcg, N = 6): 1 (17) Number (%) of participants | Treatment-related AEs: Dizziness (1 mcg, N = 6): 0 Number (%) of participants | Treatment-related AEs: Headache (1 mcg, N = 6): 1 (17) Number (%) of participants | Treatment-related AEs: Lethargy (1 mcg, N = 6): 0 Number (%) of participants | Treatment-related AEs: Rhinorrhoea (1 mcg, N = 6): 0 Number (%) of participants | Treatment-related AEs: Any AE (3 mcg, N = 6): 0 Number (%) of participants | Treatment-related AEs: Cough (3 mcg, N = 6): 0 Number (%) of participants | Treatment-related AEs: Dizziness (3 mcg, N = 6): 0 Number (%) of participants | Treatment-related AEs: Headache (3 mcg, N = 6): 0 Number (%) of participants | Treatment-related AEs: Lethargy (3 mcg, N = 6): 0 Number (%) of participants | Treatment-related AEs: Rhinorrhoea (3 mcg, N = 6): 0 Number (%) of participants | Treatment-related AEs: Any AE (10 mcg, N = 6): 2 (33) Number (%) of participants | Treatment-related AEs: Cough (10 mcg, N = 6): 1 (17) Number (%) of participants | Treatment-related AEs: Dizziness (10 mcg, N = 6): 1 (17) Number (%) of participants | Treatment-related AEs: Headache (10 mcg, N = 6): 0 Number (%) of participants | Treatment-related AEs: Lethargy (10 mcg, N = 6): 1 (17) Number (%) of participants | Treatment-related AEs: Rhinorrhoea (10 mcg, N = 6): 0 Number (%) of participants | Treatment-related AEs: Any AE (30 mcg, N = 6): 0 Number (%) of participants | Treatment-related AEs: Cough (30 mcg, N = 6): 0 Number (%) of participants | Treatment-related AEs: Dizziness (30 mcg, N = 6): 0 Number (%) of participants | Treatment-related AEs: Headache (30 mcg, N = 6): 0 Number (%) of participants | Treatment-related AEs: Lethargy (30 mcg, N = 6): 0 Number (%) of participants | Treatment-related AEs: Rhinorrhoea (30 mcg, N = 6): 0 Number (%) of participants | Treatment-related AEs: Any AE (100 mcg, N = 6): 1 (17) Number (%) of participants | Treatment-related AEs: Cough (100 mcg, N = 6): 1 (17) Number (%) of participants | Treatment-related AEs: Dizziness (100 mcg, N = 6): 0 Number (%) of participants | Treatment-related AEs: Headache (100 mcg, N = 6): 0 Number (%) of participants | Treatment-related AEs: Lethargy (100 mcg, N = 6): 0 Number (%) of participants | Treatment-related AEs: Rhinorrhoea (100 mcg, N = 6): 0 Number (%) of participants | Treatment-related AEs: Any AE (300 mcg, N = 6): 1 (17) Number (%) of participants | Treatment-related AEs: Cough (300 mcg, N = 6): 0 Number (%) of participants | Treatment-related AEs: Dizziness (300 mcg, N = 6): 0 Number (%) of participants | Treatment-related AEs: Headache (300 mcg, N = 6): 0 Number (%) of participants | Treatment-related AEs: Lethargy (300 mcg, N = 6): 0 Number (%) of participants | Treatment-related AEs: Rhinorrhoea (300 mcg, N = 6): 1 (17) Number (%) of participants | Treatment-related AEs: Any AE (1000 mcg, N = 12): 0 Number (%) of participants | Treatment-related AEs: Cough (1000 mcg, N = 12): 0 Number (%) of participants | Treatment-related AEs: Dizziness (1000 mcg, N = 12): 0 Number (%) of participants | Treatment-related AEs: Headache (1000 mcg, N = 12): 0 Number (%) of participants | Treatment-related AEs: Lethargy (1000 mcg, N = 12): 0 Number (%) of participants | Treatment-related AEs: Rhinorrhoea (1000 mcg, N = 12): 0 Number (%) of participants | Treatment-related AEs at the highest doses (1000 or 3000 mcg): no treatment-related AEs were reported | Treatment-related AEs: Any AE (3000 mcg, N = 11): 0 Number (%) of participants | Treatment-related AEs: Cough (3000 mcg, N = 11): 0 Number (%) of participants | Treatment-related AEs: Dizziness (3000 mcg, N = 11): 0 Number (%) of participants | Treatment-related AEs: Headache (3000 mcg, N = 11): 0 Number (%) of participants | Treatment-related AEs: Lethargy (3000 mcg, N = 11): 0 Number (%) of participants | Treatment-related AEs: Rhinorrhoea (3000 mcg, N = 11): 0 Number (%) of participants | 12-lead ECG, telemetry and vital sign measurements outside normal ranges (all dose levels): not clinically significant | Clinical laboratory values (all dose levels): no clinically significant abnormal clinical laboratory values | Tolerability (single doses up to 3000 mcg, healthy participants): well tolerated | Geometric coefficient of variance (CV) for AUC0-inf, inter-individual variability ([2]; human): 19.8-52.5% | Geometric coefficient of variance (CV) for AUC0-t, inter-individual variability ([2]; human): 20.1-99.0% | Geometric coefficient of variance (CV) for Cmax, inter-individual variability ([2]; human): 16.6-106% | Plasma concentrations ([2]; human): Note: all GSK3008348 plasma concentrations were non-quantifiable following administration of 1, 3, and 10 mcg GSK3008348 | Time post-dose at which plasma concentrations were measurable ([2]; human): 0.25 to 4 h | Plasma concentrations [2]: not quantifiable | Systemic toxicity [3]: No systemic toxicity | Receptor dissociation half-life (αvβ6 integrin): ~ 9 h | Lung retention after absorption from the lung [4]: no evidence of significant lung retention
